According to paper PMC9588774:
No constants are given. Whether binding was seen depends on the method and setting. In cells and extracts the contact can be indirect. Some binding calls cover weakened binding; strength is not graded here.

Sequences of proteins named here, by UniProt entry; tags and fusion partners are left off. A change or cut given only in a name is not applied to a line headed by its entry. Residues count along the entry.
UniProt P25445, residues 59-335: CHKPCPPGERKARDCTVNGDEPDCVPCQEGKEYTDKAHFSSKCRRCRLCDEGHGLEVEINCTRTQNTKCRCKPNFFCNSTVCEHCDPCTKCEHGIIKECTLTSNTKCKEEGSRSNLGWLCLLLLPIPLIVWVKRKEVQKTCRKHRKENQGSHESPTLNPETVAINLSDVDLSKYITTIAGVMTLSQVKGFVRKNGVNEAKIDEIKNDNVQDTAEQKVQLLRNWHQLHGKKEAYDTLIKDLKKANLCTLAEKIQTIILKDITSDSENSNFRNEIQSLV
UniProt Q13158: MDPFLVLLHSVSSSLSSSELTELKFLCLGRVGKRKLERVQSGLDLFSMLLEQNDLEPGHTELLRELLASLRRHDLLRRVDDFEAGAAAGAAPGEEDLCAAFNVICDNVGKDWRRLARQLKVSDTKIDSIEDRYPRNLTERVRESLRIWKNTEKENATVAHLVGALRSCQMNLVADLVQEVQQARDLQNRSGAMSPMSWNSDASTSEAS
UniProt Q14790: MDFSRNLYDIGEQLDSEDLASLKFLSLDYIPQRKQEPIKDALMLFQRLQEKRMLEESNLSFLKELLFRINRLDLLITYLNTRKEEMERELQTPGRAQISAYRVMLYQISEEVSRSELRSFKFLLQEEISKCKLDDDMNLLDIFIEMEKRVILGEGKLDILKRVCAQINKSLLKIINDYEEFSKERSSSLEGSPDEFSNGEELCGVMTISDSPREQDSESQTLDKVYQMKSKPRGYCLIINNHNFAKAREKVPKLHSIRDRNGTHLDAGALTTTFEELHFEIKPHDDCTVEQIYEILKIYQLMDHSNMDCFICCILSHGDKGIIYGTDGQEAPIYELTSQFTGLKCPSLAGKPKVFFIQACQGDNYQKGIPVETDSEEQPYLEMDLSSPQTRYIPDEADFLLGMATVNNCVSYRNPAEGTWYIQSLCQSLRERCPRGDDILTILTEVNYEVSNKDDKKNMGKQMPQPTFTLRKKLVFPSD

Target: N-terminally truncated CD95 receptor (CD95-Δ58) expressed in CEM-IRC cells (UniProt P25445)
Test: co-IP; CEM-IRC clones treated with 100 ng/ml IgCD95L for the indicated times at 37 °C, lysed in HEPES-Triton X-100 buffer; CD95 DISC immunoprecipitated with APO1-3 and protein A-Sepharose; FADD and caspase-8 by immunoblot

## Fas-associated death domain (FADD) protein (from UniProt Q13158 1-208)
  binding: binds

## caspase-8 (from UniProt Q14790 1-479) (enzyme)
  binding: binds
